Laboratory results reported in article PMC4140821.
Results are given in words; binding and its absence hold for the method and conditions named. Some results given as binding are weak or reduced against the parent protein; the word gives no strength.

By UniProt entry, the sequences of proteins in these tests, tags left out.
UniProt Q13098: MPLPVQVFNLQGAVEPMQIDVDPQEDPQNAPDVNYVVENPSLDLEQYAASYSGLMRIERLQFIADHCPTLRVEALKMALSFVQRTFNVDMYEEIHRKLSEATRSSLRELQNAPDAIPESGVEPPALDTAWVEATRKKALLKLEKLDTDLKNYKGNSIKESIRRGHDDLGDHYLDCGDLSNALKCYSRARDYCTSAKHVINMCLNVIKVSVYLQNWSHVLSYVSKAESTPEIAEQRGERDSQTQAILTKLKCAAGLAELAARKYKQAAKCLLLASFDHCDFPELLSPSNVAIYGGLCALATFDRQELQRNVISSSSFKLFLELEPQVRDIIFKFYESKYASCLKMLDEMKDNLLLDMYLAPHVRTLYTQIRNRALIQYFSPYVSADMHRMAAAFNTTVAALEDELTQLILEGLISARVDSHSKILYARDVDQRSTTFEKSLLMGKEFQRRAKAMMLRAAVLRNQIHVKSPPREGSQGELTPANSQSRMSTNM
UniProt Q92905: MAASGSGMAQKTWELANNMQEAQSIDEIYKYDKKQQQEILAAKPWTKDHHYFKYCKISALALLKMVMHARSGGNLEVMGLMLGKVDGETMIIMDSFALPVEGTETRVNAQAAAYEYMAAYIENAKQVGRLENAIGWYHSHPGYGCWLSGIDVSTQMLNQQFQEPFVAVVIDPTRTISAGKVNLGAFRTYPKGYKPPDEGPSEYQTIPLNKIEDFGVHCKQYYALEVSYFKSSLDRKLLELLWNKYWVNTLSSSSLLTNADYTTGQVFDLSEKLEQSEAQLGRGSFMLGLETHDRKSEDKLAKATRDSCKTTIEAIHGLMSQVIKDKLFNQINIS

Target: CSN1 (subunit of the recombinant CSN) (human) (UniProt Q13098)
Experiment: cross-linking; CX-MS: about 100 µl of 1.2 mg/ml recombinant CSN cross-linked with 1 mM DSS d0/d12, tryptic digestion, LC-MS/MS, xQuest; both purified

binding: binds
Substance: CSN5 (subunit of the recombinant CSN) (from UniProt Q92905 1-334)
